Reference: US20240368668A1, “SUBSTRATES AND BIOMARKERS OF ADAMTS7” (The Broad Institute, Inc., priority 2021, published 2024)

Assays:
[1] = tested on: mouse ADAMTS7; assay: TMT10 TAILS N-terminomics, HUVEC experiment (process replicates, trypsin/AspN digest); assay type: cell-based, human; settings: for ATS7_HUVEC_TAILS_frxns_mATS7inDB_AspGluN.total Intensity: HUVEC TAILS experiment, total MS intensity of the N-terminal (neo-N-terminal) peptide identified by TAILS_id; for HUVEC TAILS.total Intensity: HUVEC experiment, total intensity of the N-terminal (TAILS) peptide
From the text: ADAMTS7 Expression, Cell Culture and Preparation of the Secreted Proteins—Full-length mouse Adamts7 1-1857 (Uniprot Q68SA9, WT or E373Q catalytic mutant) with a carboxyl terminal 3xFLAG tag was used to generate custom adenoviruses as previously described. Adeno-CMV-Luciferase (Ad-Luc) from Vector Biolabs was used as a negative control. Human Coronary Artery Smooth Muscle Cells (HCA-SMC) were obtained from Lonza and expanded in Lonza SmGM-2 media in 15 cm tissue culture plates. Twenty-four hours before media collection, near confluent plates were transduced with 50 MOI adenovirus and switched to Lonza Basal SM media with volumes of 20 ml per 15 cm plate. Expression of the Flag tagged ADAMTS7 was confirmed from the media using western blot and detected using the anti-Flag M2-HRP antibody (Sigma, A8592). Collected media was processed by adding protease inhibitors (1 mM EDTA and 1 mM PMSF) and clarified by 500 g×5 min spin at 4 C to pellet cell debris. Cell media supernatants were then passed through a 0.22 um filter and kept chilled. Processed media was then concentrated 50-100× using 3 kDa Centricon Plus-70 filter unit, spun at 3,500 g×60 min at 4 C. Approximately 10% of the processed, concentrated media was set aside for total secretome proteolytic analysis. The remaining 90% of the processed, concentrated media was buffer exchanged into 50 mM HEPES pH 8.0, 150 mM NaCl (2×50 ml) using the 3 kDa Centricon Plus-70 filter unit and concentrated to >2 mg/ml to serve as input for the TAILS experiment. Secretome and TAILS input samples were stored at −80° C.
For the first experiment, referred to as SMC1, 120 ml of media from 6×15 cm dishes was pooled from each condition (Luc, WT, EQ) and processed to produce three separate inputs for the TAILS experiment. Luc, WT and EQ inputs from the SMC1 experiment were each divided into triplicate 400 ug samples to generate technical replicate TAILS data. For the second experiment, referred to as SMC2, media was processed separately in triplicate for each condition (Luc1, Luc2, Luc3, WT1, WT2, WT3, EQ1, EQ2, EQ3) using 60 ml of media from 3×15 cm dishes for each process replicate. Inputs from the SMC2 experiment used process replicates of 300 ug each to generate TAILS data. The third experiment used input from cultured Human umbilical vein endothelial cells (HUVEC) from Lifeline Cell Technology grown in VascuLife Media and transduced in Lifeline Basal EC (+bFGF2 10 ng/ml). The HUVEC experiment used the same strategy as the SMC2 experiment, with 40 ml of media from 2×15 cm dishes for each process replicate and used 200 ug each to generate TAILS data. Inputs for process replicate experiments were restricted to the lowest concentration from the 9 parallel samples for SMC2 or HUVEC.
TMT10 isotopic labeling and negative selection of non-labeled peptides-Sample preparation was performed based on the TAILS protocol from the Overall lab with some modifications. From a single experiment, nine parallel protein samples in 50 mM HEPES pH 8.0, 150 mM NaCl were separately denatured with guanidinium chloride (Sigma, G4505) to reach a final concentration of 2.5M guanidinium chloride and 250 mM HEPES and incubated at 65° C. for 15 min. Reduction was achieved through addition of tris(2-carboxylethyl) phosphine (TCEP) at a final concentration of […] and incubated at 65° C. for 45 min. Alkylation reaction was performed with addition of iodoacetamide (IAA, Sigma, A3221) to a final concentration of 10 mM IAA for 15 min at room temperature in the dark. Following denaturation, reduction and alkylation steps, ten percent of each of the nine parallel protein samples was removed and combined to serve as a pooled reference. Isobaric tags were added to free amine groups using the TMT10plex Isobaric Mass Tagging Kit (ThermoFisher, 90113) with TMT channels randomly assigned to the nine samples and TMT 131 assigned to the pooled reference. […]

[2] = tested on: mouse ADAMTS7; assay: TMT10 TAILS N-terminomics, SMC2 experiment (process replicates, trypsin/AspN digest); assay type: cell-based; settings: for SMC2 TAILS.total Intensity: SMC2 experiment, total intensity of the N-terminal (TAILS) peptide
Outline: (§1)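 Full-length mouse ADAMTS7 (WT or E373Q mutant, C-terminal 3xFLAG) or luciferase was transduced via adenovirus, 50 MOI, into HCA-SMC (SMC1, SMC2) or HUVEC. SMC1: pooled media, technical triplicates 400 ug; SMC2: process triplicates 300 ug; HUVEC: process triplicates 200 ug, bFGF2 10 ng/ml.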

[3] = tested on: mouse ADAMTS7; assay: TMT10 TAILS N-terminomics, SMC1 experiment (Ad-mADAMTS7 WT vs EQ vs Luc, technical replicates, trypsin digest); assay type: cell-based
Outline: as §1

[4] = SMC rd2 TAILS, AspGluN search, total spectral intensity of the N-terminal peptide (TAILS_id = gene_StartAA cleavage site)
[5] = total intensity of the N-terminal peptide spectra, SMC rd2 TAILS fractions, AspN/GluC search

Substance | ATS7_HUVEC_TAILS_frxns_mATS7inDB_AspGluN.total Intensity [1] | HUVEC TAILS.total Intensity [1] | SMC2 TAILS.total Intensity [2] | further results
LTBP2_250 (SAAGEGTLAR; listed as Homo sapiens) | 9.28E+08 | 9.28E+08 | 1.86E+08 | ATS7_SMC_rd2_TAILS_frxns_matS7inDB_AspGluN_retry.totalIntensity [2, 4]: 1.86E+08
LTBP2_79 (VAGLQPVER; listed as Homo sapiens) | 9.87E+08 | 9.87E+08 | 6.41E+07 | ATS7_SMC_rd2_TAILS_frxns_matS7inDB_AspGluN_retry.totalIntensity [2, 4]: 6.41E+07
FN1_2113 (FVTHPGY; listed as Homo sapiens) | 2.71E+09 | 2.71E+09 | 5.02E+09 | ATS7_SMC_rd2_TAILS_frxns_matS7inDB_AspGluN_retry.totalIntensity [2, 5]: 5.02E+09
FN1_34 (QQMVQPQSPVAVSQSKPGCY; listed as Homo sapiens) | 5.42E+09 | – | – | –
FN1_35 (QMVQPQSPVAVSQSKPGCY; listed as Homo sapiens) | 2.07E+10 | 2.07E+10 | 2.65E+10 | ATS7_SMC_rd2_TAILS_frxns_matS7inDB_AspGluN_retry.totalIntensity [2, 5]: 2.65E+10
CLU_267 (FQHPPTEFIR; listed as Homo sapiens) | 9.81E+08 | – | – | –
NUCB1_317 (FLASTQR; listed as Homo sapiens) | 1.67E+08 | 1.67E+08 | – | SMC1 TAILS.total Intensity ([3]; TAILS HC Overlap, SMC1, total intensity of the peptide): 1.78E+08; TAILS_SMC_Scaleup_fxns_mATS7i ([3]; TAILS N-terminal peptide identified in SMC conditioned media (scale-up, fractions), mouse ADAMTS7, value listed per TAILS_id (protein_StartAA)): 1.78E+08
NID1_360 (FHQQHPQVI; listed as Homo sapiens) | 5.26E+08 | 5.26E+08 | 7.78E+09 | ATS7_SMC_rd2_TAILS_frxns_matS7inDB_AspGluN_retry.totalIntensity [2, 4]: 7.78E+09
CTGF_174 (VVGPALAAYR; listed as Homo sapiens) | 5.59E+08 | – | – | –
FN1_1144 (TPGVEYVYTIQVLR; listed as Homo sapiens) | 2.58E+08 | – | – | –
UQCRH_76 (HGSPNNSERAMRAVGEMCKGPGAAR; oxidized methionine; listed as Homo sapiens) | 3.01E+08 | – | – | –
CTGF_173 (TVVGPALAAYR; listed as Homo sapiens) | 3.77E+10 | – | – | –
FN1_1624 (LVQTAVTTIPAPT; listed as Homo sapiens) | 6.33E+09 | – | – | –
LTBP3_164 (LSTGALPPLAPEG; listed as Homo sapiens) | 1.18E+08 | – | – | –
MMP2_193 (HAFAPGTGVGG; listed as Homo sapiens) | 5.68E+08 | – | – | –
